Reference: paper PMC3272004
No constants are given. Whether binding was seen depends on the method and setting. In cells and extracts the contact can be indirect. Some entries that bind do so weakly or less than the wild type. Tags and fused reporters may be left off the sequences shown.

Columns and labels:
[1] = molecular target: T1, GST-Brk fusion protein, Brk(441-589) (Drosophila) (UniProt Q9XTN4); test: pull-down; GST-Brk(441-589) or GST immobilised on glutathione beads; in vitro translated [35S]-Gro variants; PBS with 340 mM NaCl, 1 mM EDTA, 0.1% NP-40, 10% BSA; washes PBS with 290 mM NaCl; autoradiography; only the target purified
T1 sequence: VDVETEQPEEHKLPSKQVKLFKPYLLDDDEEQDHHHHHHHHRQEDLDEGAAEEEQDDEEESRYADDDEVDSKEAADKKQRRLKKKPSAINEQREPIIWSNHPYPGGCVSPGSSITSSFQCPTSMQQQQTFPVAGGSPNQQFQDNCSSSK

[2] = molecular target: T2, His-tagged Gro N-terminal region, wild type (His-GroN^WT), Gro (2-194) (Drosophila) (UniProt P16371); test: pull-down; untagged Gro forms cotranslated in vitro with His-GroN in the presence of [35S]-methionine; His-GroN immobilised on Ni-NTA beads overnight at 4°C; 25 mM HEPES pH 7.6, 450 mM NaCl, 10 mM imidazole, 0.1% Tween 20, 1 mM DTT; SDS-PAGE and autoradiography
T2 sequence: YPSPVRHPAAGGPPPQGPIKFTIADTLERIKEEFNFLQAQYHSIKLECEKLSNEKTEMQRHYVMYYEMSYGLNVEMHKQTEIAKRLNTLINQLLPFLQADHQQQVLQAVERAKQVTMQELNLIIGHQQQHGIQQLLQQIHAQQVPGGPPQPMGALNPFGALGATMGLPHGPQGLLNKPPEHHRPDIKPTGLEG

In the case of “Groucho, wild-type full-length (Gro^WT), untagged (from UniProt P16371 1-730)”, the binding [1] is reported as “binds” and the binding [2] is reported as “binds”.
